Source: PMC9740131
Results are given in words; binding and its absence hold for the method and conditions named. Binding seen in cells or lysates may run through a third protein.

Target: LIM domain and actin binding 1 (LIMA1) (human (endogenous in Huh7)), Q9UHB6
Assay: co-IP; endogenous proteins of Huh7 cells lysed with NP-40 and 1% PMSF; Pierce Magnetic IP/Co-IP Kit; western blotting
Conditions: remark: other sources report otherwise

B1: PINK1, Q9BXM7 78-581 (protein)
chain: AARLQRQFVVRAWGCAGPCGRAVFLAFGLGLGLIEEKQAESRRAVSACQEIQAIFTQKSKPGPDPLDTRRLQGFRLEEYLIGQSIGKGCSAAVYEATMPTLPQNLEVTKSTGLLPGRGPGTSAPGEGQERAPGAPAFPLAIKMMWNISAGSSSEAILNTMSQELVPASRVALAGEYGAVTYRKSKRGPKQLAPHPNIIRVLRAFTSSVPLLPGALVDYPDVLPSRLHPEGLGHGRTLFLVMKNYPCTLRQYLCVNTPSPRLAAMMLLQLLEGVDHLVQQGIAHRDLKSDNILVELDPDGCPWLVIADFGCCLADESIGLQLPFSSWYVDRGGNGCLMAPEVSTARPGPRAVIDYSKADAWAVGAIAYEIFGLVNPFYGQGKAHLESRSYQEAQLPALPESVPPDVRQLVRALLQREASKRPSARVAANVLHLSLWGEHILALKNLKLDKMVGWLLQQSAATLLANRLTEKCCVETKMKMLFLANLECETLCQAALLLCSWRAAL
Question: With B1 as the binder, how does the binding read?
Answer: Its binding is “no binding”.
